The values below come from paper PMC4686857.

Sequences of proteins named here, by UniProt entry; tags and fusion partners are left off. A change or cut given only in a name is not applied to a line headed by its entry. A line that says so, or that is headed by a name, gives the form on record, which may keep a tag or linker. Residues count along the entry.
UniProt P62834: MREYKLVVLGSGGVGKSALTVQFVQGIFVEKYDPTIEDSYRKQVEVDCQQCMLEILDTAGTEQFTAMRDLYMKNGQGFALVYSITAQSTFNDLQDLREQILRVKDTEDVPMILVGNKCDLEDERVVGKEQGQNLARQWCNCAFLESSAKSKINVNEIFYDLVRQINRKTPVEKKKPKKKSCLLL
T7-tagged Rap1N17 (constitutively negative mutant of human Rap1a) (P62834, form named): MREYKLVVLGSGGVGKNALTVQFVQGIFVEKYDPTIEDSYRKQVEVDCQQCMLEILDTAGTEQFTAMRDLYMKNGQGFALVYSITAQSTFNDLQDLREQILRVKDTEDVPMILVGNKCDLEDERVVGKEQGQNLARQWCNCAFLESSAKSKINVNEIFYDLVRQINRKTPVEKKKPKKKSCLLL
T7-tagged Rap1V12 (constitutively active mutant of human Rap1a) (P62834, form named): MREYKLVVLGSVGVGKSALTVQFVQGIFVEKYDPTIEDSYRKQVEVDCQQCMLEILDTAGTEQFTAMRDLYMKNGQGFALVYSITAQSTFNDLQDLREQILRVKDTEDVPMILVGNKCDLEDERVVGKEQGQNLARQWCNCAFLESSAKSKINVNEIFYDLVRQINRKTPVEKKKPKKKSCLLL
UniProt P21333: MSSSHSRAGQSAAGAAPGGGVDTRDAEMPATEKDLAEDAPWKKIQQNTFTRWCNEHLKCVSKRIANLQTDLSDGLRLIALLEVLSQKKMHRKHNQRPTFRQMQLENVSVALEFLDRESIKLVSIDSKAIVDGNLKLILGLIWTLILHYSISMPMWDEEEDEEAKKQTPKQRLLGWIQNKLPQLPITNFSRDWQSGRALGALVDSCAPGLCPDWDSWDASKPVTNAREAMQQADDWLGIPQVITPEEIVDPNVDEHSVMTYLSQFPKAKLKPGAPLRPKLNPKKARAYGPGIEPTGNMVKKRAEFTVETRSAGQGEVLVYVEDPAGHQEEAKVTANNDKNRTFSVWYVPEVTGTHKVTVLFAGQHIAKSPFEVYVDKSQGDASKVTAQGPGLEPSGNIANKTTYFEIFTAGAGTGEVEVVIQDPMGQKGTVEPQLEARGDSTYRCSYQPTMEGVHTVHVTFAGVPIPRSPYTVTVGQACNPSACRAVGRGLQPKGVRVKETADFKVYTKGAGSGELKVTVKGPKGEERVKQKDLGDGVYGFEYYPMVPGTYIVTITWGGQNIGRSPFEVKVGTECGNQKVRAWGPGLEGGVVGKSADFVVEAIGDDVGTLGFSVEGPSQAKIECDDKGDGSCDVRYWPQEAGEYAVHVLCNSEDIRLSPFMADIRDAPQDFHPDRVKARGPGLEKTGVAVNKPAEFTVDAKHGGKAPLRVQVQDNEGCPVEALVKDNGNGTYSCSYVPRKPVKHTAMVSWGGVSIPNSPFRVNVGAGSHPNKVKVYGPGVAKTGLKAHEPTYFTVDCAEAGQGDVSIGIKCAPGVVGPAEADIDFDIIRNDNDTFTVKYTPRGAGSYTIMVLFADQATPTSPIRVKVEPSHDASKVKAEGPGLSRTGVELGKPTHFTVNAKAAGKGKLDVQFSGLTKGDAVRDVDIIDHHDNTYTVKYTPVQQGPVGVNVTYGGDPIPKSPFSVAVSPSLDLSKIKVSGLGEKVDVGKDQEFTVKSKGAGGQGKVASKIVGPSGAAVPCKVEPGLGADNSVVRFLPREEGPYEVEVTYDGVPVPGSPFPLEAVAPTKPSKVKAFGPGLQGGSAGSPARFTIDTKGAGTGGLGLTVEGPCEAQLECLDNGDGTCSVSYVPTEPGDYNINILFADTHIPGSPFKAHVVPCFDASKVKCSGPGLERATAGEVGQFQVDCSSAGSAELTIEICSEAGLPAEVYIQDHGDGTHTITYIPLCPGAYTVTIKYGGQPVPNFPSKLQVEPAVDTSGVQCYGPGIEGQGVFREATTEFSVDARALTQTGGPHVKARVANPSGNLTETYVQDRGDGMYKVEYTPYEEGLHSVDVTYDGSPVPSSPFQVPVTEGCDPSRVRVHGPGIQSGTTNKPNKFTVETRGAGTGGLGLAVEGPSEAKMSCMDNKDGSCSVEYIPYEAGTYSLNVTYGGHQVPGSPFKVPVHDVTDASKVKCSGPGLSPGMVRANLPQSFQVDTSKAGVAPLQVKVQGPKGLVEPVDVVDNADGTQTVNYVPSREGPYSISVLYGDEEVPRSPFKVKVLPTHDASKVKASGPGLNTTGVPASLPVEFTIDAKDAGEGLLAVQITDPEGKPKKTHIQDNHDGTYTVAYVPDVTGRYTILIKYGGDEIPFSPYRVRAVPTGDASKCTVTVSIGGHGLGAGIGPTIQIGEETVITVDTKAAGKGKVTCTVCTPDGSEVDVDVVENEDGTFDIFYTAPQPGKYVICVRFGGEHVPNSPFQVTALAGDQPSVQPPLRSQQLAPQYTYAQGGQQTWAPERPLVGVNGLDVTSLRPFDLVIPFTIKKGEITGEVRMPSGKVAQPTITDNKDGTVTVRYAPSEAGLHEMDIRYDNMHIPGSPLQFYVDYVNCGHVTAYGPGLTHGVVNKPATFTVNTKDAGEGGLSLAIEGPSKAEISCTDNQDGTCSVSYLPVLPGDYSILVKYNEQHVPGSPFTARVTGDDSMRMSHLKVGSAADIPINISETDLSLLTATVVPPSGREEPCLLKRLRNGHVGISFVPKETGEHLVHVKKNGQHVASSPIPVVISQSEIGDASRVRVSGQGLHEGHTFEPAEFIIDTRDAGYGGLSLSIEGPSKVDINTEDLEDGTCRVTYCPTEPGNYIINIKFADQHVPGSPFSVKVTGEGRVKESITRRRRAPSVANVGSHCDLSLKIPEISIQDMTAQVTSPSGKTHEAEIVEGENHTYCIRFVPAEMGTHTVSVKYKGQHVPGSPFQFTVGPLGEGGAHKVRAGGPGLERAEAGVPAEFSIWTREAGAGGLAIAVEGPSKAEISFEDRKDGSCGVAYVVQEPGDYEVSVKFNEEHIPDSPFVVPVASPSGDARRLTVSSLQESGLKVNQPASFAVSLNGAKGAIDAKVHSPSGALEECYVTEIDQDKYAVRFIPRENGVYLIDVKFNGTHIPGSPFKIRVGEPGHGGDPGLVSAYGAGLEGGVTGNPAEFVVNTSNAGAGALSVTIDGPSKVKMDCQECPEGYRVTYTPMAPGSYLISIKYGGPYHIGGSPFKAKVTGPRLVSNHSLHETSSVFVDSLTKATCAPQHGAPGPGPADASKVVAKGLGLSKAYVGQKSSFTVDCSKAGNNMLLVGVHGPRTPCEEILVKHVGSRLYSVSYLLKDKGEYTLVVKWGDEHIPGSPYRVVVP
UniProt O94804: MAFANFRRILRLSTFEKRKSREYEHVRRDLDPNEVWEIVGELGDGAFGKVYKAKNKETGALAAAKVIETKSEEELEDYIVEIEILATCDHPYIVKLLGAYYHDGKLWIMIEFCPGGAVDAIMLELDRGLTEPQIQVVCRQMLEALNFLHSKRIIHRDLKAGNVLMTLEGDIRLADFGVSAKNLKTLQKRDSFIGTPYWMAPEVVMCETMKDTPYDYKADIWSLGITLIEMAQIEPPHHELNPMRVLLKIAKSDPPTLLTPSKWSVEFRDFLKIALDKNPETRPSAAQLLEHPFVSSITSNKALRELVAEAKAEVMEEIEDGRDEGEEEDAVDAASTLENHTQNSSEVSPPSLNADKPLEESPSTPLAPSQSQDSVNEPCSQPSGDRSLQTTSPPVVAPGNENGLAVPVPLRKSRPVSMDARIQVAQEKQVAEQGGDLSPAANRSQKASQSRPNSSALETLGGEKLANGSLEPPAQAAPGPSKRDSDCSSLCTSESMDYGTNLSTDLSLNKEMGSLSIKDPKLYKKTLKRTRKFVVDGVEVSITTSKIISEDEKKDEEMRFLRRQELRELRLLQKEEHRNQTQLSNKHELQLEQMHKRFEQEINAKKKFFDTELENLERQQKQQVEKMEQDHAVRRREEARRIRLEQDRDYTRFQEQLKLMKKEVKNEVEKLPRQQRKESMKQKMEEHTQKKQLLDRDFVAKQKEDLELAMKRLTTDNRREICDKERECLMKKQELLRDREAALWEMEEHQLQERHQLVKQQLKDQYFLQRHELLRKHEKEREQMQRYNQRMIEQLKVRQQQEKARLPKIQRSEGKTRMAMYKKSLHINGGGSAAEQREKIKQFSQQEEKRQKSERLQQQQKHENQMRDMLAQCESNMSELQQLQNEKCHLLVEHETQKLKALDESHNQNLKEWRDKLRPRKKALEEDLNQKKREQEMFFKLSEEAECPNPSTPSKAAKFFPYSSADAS
UniProt P05107, residues 23-769: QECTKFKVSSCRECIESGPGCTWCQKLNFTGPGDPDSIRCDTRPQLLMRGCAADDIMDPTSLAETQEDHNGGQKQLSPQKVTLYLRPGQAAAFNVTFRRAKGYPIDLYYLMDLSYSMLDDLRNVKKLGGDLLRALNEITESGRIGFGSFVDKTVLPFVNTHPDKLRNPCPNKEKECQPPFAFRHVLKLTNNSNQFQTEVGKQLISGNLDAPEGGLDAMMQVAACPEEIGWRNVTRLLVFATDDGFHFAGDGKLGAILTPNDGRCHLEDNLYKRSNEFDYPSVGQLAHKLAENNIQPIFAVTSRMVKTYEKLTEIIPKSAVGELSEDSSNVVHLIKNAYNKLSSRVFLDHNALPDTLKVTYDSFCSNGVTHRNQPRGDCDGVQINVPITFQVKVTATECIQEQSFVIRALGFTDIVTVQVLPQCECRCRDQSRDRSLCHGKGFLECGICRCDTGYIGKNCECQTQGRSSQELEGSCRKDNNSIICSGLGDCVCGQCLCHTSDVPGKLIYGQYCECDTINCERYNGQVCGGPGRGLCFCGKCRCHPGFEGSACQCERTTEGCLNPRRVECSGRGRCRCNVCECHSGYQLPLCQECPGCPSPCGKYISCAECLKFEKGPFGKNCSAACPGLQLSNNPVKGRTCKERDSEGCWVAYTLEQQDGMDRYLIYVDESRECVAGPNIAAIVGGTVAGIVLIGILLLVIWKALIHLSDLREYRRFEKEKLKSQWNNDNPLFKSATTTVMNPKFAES

For experiment [1], the target named is T7-tagged Rap1N17 (constitutively negative mutant of human Rap1a) (human) (UniProt P62834). The experiment is described as follows: co-IP; COS cells transfected with FLAG-LOK together with T7-tagged Rap1V12 or Rap1N17; lysates immunoprecipitated with anti-T7, immunoblotted with anti-FLAG. (In general: In western blotting, separated proteins are transferred to a membrane and probed.)

Experiment [2] deals with T7-tagged Rap1V12 (constitutively active mutant of human Rap1a) (human) (UniProt P62834). The experiment is described as above.
The target of experiment [3] is Halo-tagged FLNa, wild type (UniProt P21333). In words: pull-down; lysates of COS cells transfected with Halo-FLNa (wild type or deletion mutants) and T7-Rap1V12 or N17, in one panel also αL and mRFP-β; precipitated with HaloLink resin; immunoblotted with anti-T7, Halo, mRFP, αL.

These are yes or no findings as the source states them, for the method shown. In cells and extracts the contact can be indirect. Some results given as binding are weak or reduced against the parent protein; the word gives no strength.

As to “FLAG-tagged lymphocyte-oriented kinase (LOK), wild type, full-length (from UniProt O94804 1-968) (enzyme)”, the binding entry is on record as “binds” in experiment [1] and “no binding” in experiment [2]. Take “T7-tagged Rap1V12 (constitutively active mutant of human Rap1a) (from UniProt P62834 1-184)”: in experiment [3], the binding entry is “binds”. Still for that read-out and setting: with “mRFP-tagged β2 subunit of LFA-1 (expressed with αL in COS cells) (from UniProt P05107 23-769) (receptor)” the entry was “binds”.
